Our source for the binding values is patent publication US20110117169A1, “METHODS AND COMPOSITIONS FOR CAPTURE OF CELLS” (AFFINERGY, INC., priority 2009, published 2011).

These are yes or no findings as the source states them, for the method shown. Some entries that bind do so weakly or less than the wild type.

For the assay, the target named is T1, Recombinant human TGF-β3 (rhTGF-β3) (human) (UniProt P10600).
T1 sequence (looked up): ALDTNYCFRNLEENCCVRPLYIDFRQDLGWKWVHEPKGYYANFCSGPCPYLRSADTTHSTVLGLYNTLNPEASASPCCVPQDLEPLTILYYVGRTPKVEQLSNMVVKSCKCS
Description: ELISA: biotinylated peptide on streptavidin plate, TGF-β3 titrated 1 µM-1 nM, detected with anti-TGF-β antibody and AP-conjugated secondary antibody. On the technique in general: ELISA stands for enzyme-linked immunosorbent assay.

Turning to SSCNNLSVCTFDKIIERNRSSRGSSGK (biotin on the Lys of the C-terminal GSSGK(biotin) sequence) [TGF-β binding peptide … (SEQ ID NO: 21), biotinylated], the binding result is recorded as “binds”.
